Data source: PubChem BioAssay AID743454 (Peter MacCallum Cancer Centre, 2014)

- Aim: 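Genes whose loss kills vorinostat-resistant colon cancer cells under vorinostat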 (primary screen)
- Cells: human HCT116-VR colon cancer cells, selected for vorinostat resistance
- Reagents: siRNA pool against human genes, 40 nM siRNA pool
- Time to read-out: vorinostat for 24 h, read-out about 72 h after transfection
- Conditions: vorinostat at 2.5 µM final
- Measurement: 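Cell viability by CellTiter-Fluor and caspase 3/7 activity by luminescence, each scaled to mock wells per plate, duplicates averaged, then robust z-scored over all plates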
- Scale: viability robust z-score: higher = more viable cells than screen typical; caspase robust z-score: higher = more caspase 3/7 activity than screen typical
- Hit rule: 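a knock-down is a hit when classed RV1 or RV2 for lowered viability, or CA1 or CA2 for caspase activation; those lethal without drug were dropped; hits were retested singly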
In all, the deposit lists about 18,000 reagents; below is an unselected part. In the full data, 450 (2.5%) got an active call. 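Single biological run; no consistent viability z cut-off exists, so the class columns, not z-scores, define the calls.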

| target | PubChem SID | viability hit class | caspase hit class | viability robust z-score | caspase robust z-score | outcome |
| --- | --- | --- | --- | --- | --- | --- |
| GTF2H1 | SID56479243 | no change | no change | -0.65 | -0.38 | inactive |
| KLHL14 | SID135624369 | no change | no change | 0.81 | 1.09 | inactive |
| HSD17B8 | SID135621515 | no change | no change | -0.84 | -0.3 | inactive |
| FLII | SID134321439 | no change | CA2 (caspase activation) | -0.3 | 7.41 | active |
| MATN1 | SID134315674 | no change | no change | 1.09 | 0.52 | inactive |
| RRAS | SID152149086 | no change | no change | -0.36 | 1.61 | inactive |
| EDC4 | SID134320618 | no change | no change | -1.44 | 1.1 | inactive |
| TUSC3 | SID134322848 | no change | no change | -0.59 | -0.14 | inactive |
| GJB4 | SID152149705 | no change | no change | -0.3 | -0.68 | inactive |
| SGCA | SID135622333 | no change | no change | -0.12 | 1.59 | inactive |
| MORC4 | SID152150677 | no change | no change | -0.28 | 0.84 | inactive |
| MYL12A | SID152148654 | no change | no change | 0.78 | -0.58 | inactive |
| WFDC9 | SID134321416 | no change | no change | -0.06 | 0.18 | inactive |
| CDK20 | SID152152456 | no change | no change | -1.14 | -0.58 | inactive |
| PID1 | SID135623636 | no change | no change | 0.21 | -0.55 | inactive |
| SNW1 | SID134316717 | no change | no change | -2.38 | -0.73 | inactive |
| CRYZ | SID134314586 | no change | no change | 0.24 | 0.28 | inactive |
| MICOS13 | SID134329406 | no change | no change | -0.48 | -0.8 | inactive |
| RBM44 | SID135625266 | no change | no change | 0.68 | -0.1 | inactive |
| MBP | SID135623800 | no change | no change | 0.74 | 3.94 | inactive |
| SWT1 | SID135623655 | no change | no change | -1.9 | 2.29 | inactive |
| PSG3 | SID152153291 | no change | no change | 0.92 | 0.11 | inactive |
| PLA2G2F | SID135621601 | no change | no change | -0.53 | -0.62 | inactive |

Reformatted: results already given.
{"target": "PID1", "PubChem SID": "SID135623636", "viability hit class": "no change", "caspase hit class": "no change", "viability robust z-score": 0.21, "caspase robust z-score": -0.55, "outcome": "inactive"}
{"target": "SNW1", "PubChem SID": "SID134316717", "viability hit class": "no change", "caspase hit class": "no change", "viability robust z-score": -2.38, "caspase robust z-score": -0.73, "outcome": "inactive"}
